In article PMC10415178:
These are yes or no findings as the source states them, for the method shown. In cells and extracts the contact can be indirect. A result given as binding can be weak or reduced; the word gives no strength.

Amino acid sequences for entries named in this document (tags omitted). A change or cut given only in a name is not applied to a line headed by its entry.
UniProt Q04887: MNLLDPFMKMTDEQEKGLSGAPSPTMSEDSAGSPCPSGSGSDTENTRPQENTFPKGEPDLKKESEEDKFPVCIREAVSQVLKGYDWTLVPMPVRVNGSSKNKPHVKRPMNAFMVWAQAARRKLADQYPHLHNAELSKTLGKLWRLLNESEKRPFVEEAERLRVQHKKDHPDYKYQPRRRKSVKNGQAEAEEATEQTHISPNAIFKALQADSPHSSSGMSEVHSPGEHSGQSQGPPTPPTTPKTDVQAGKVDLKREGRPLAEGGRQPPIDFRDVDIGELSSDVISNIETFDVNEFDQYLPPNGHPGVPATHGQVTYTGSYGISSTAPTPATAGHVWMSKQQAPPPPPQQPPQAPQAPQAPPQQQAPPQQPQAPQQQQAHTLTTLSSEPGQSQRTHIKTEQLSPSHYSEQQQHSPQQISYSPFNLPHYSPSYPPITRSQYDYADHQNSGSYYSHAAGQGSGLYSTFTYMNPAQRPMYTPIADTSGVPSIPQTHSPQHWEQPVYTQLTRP
UniProt A2BH40: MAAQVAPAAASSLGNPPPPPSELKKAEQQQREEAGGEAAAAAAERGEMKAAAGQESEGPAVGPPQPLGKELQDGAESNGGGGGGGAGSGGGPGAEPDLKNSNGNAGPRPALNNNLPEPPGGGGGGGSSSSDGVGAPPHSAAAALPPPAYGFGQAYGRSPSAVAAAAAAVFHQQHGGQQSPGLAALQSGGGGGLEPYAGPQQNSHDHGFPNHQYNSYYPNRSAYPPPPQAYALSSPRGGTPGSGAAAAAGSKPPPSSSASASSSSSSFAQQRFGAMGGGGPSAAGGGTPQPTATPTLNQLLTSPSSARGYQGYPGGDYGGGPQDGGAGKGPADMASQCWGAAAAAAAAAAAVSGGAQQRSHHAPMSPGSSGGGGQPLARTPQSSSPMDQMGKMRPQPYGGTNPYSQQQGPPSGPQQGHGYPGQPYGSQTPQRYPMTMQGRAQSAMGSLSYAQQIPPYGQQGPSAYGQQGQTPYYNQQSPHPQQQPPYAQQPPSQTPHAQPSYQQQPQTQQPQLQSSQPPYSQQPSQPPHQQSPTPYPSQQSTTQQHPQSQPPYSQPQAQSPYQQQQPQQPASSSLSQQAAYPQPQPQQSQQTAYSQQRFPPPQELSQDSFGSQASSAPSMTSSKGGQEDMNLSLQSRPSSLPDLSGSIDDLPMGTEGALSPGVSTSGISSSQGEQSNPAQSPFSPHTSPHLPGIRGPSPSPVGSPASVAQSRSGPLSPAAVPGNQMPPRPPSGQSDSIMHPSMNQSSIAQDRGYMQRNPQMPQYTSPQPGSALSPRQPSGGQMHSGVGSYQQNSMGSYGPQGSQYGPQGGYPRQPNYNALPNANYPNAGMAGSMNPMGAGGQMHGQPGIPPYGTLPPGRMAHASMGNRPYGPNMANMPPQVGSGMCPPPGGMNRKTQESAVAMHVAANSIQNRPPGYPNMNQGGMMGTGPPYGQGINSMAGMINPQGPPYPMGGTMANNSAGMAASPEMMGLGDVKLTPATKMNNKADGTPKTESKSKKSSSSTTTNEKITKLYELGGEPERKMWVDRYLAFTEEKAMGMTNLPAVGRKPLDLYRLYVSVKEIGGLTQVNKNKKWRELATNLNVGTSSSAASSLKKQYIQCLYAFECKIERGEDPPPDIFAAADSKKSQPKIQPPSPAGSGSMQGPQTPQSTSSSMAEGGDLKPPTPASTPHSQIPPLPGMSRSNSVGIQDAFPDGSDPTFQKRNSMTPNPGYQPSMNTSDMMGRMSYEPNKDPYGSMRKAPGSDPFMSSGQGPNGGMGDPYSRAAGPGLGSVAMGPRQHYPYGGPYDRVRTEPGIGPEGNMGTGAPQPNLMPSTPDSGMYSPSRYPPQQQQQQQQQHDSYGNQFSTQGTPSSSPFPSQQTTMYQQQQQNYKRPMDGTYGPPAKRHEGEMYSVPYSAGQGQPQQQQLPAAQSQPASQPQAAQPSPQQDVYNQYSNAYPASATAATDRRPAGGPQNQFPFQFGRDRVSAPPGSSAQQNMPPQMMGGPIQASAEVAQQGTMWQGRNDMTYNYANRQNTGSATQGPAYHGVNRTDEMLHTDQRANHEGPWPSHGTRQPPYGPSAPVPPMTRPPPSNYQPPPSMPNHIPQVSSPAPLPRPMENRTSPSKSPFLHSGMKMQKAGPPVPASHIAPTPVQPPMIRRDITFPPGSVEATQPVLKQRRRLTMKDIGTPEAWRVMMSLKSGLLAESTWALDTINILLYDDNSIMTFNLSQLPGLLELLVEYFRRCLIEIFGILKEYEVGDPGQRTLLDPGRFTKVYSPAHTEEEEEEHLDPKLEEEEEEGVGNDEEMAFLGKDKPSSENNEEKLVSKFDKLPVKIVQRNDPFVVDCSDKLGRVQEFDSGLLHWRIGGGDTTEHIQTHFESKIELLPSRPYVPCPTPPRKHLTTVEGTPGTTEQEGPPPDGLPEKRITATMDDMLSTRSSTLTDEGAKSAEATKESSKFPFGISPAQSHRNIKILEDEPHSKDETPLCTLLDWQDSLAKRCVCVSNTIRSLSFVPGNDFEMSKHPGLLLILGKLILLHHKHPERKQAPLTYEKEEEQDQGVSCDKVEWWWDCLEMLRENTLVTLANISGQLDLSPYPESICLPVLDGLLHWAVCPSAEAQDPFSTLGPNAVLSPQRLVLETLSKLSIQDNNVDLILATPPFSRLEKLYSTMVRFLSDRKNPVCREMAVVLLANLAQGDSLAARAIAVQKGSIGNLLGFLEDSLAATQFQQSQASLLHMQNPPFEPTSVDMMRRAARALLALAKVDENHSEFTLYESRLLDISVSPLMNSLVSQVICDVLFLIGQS
UniProt P05627: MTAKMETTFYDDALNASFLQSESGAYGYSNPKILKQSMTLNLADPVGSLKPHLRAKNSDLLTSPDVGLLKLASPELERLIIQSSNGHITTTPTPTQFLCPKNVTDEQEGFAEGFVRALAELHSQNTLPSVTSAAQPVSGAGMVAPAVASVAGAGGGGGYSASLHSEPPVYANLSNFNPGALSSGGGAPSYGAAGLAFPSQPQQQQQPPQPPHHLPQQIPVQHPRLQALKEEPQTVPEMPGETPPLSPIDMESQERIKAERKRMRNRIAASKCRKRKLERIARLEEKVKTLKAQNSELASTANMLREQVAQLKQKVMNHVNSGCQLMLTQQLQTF

Biological target: MYC-tagged ΔHMG-SOX9 (UniProt Q04887)
Experiment: co-IP; cultured EpdSC lysates with or without DOX induction of MYC-tagged SOX9 or its variants; anti-myc tag antibody on protein-A/G magnetic beads; immunoblot for MLL4, cJUN or ARID1a

binding | Substance
binds | ARID1a (from UniProt A2BH40 1-2283)
binds | c-JUN (from UniProt P05627 1-334)
